No constants are given. Whether binding was seen depends on the method and setting. Binding calls can cover weak binding; strength is not graded here.

This experiment deals with insulin-like growth factor 2 receptor (IGF2R) on rat hepatic stellate cells HSC-T6 (rat). Briefly: flow cytometry, uptake of 5-FAM labelled peptide by HSC-T6 cells, 1 h. Background: Flow cytometry measures light scatter and fluorescence of single cells or particles in a stream.

B1: Peptide-431 (peptide)
peptide: VHWDFRQWWQPS
modifications: 5-FAM label (position not given)
As to B1, the binding result is reported as “binds”.

For the origin of these results see patent US20170101442A1.
